Laboratory results published in PubChem BioAssay AID1492 (National Center for Advancing Translational Sciences (NCATS), 2009).
Inconclusive results, whose numbers are uncertain, are shown with a selection of clear calls. Potencies beside an inconclusive call are fits to weak or partial responses and may not hold up. The source made the active and inactive calls. The call rests on the fitted dose curve; in most records, active means well fitted inhibition curve with a large enough effect; inconclusive means small, poorly fitted or top-dose-only effect; inactive means flat fitted curve, though single readings scatter.

biological target: Muscarinic acetylcholine receptor M1 (Rattus norvegicus) (UniProt P08482); assay: Counterscreen Concentration-Response Assay for Antagonists of the Neuropeptide S Receptor: Muscarinic Receptor Calcium Signal Transduction.; conditions: CHO-M1 cells, carbachol-induced calcium fluorescence, FDSS; series mostly up to 20.2 µM
From the text: NIH Chemical Genomics Center [NCGC] NIH Molecular Libraries Probe Production centers Network [MLPCN] MLPCN Grant: X01-DA026210-01 Assay Submitter (PI): Heilig, Markus Alexander NCGC Assay Overview: Neuropeptide S receptor (NPSR), previously known as GPR154, is a recently de-orphanized G protein coupled receptor. Its endogenous ligand is the 20 amino acids peptide Neuropeptide S (NPS). […] NPS and its receptor are found in various tissues. Specifically they are highly expressed in brain areas that have been implicated in modulation of arousal, stress and anxiety. Central administration of NPS in mice produces an unusual profile of activity by inducing wakefulness and arousal, while at the same time suppressing anxiety. Therefore, NPSR may represent a novel drug target for the treatment of sleep and anxiety disorders. To identify NPSR antagonists, we developed a cell-based assay with transfected NPS receptor. NPS can stimulate the production of cAMP as well as release intracellular calcium in Chinese hamster ovary cells stably expressing NPS receptor. This change in intracellular calcium can be detected using a calcium indicator dye on a calcium imaging plate reader system (FDSS). To validate the specific action of compounds on the NPS receptor, a counterscreen was developed that tests compounds' antagonism of M1 muscarinic receptor stimulation by carbachol. The protein, gene and taxonomy linked to this assay refer to Rattus norvegicus, but Chinese Hamster ovary cells were actually used.
NCGC Assay Protocol Summary: A Chinese hamster ovary (CHO) cell line stably expressing muscarinic acetylcholine M1 receptor (CHO-M1) was obtained from ATCC and maintained in F-12 Kaighn's media (Invitrogen, Carlsbad, CA, 21127) supplemented with 10 % FBS, 100 units/ml penicillin, 100 ug/ml streptomycin and 250 ug/ml geneticin at 37C, 5% CO2 in a humidified atmosphere. Before the assay, aliquots of cells were frozen and stored at -135C. The assay was performed on a FDSS-7000 kinetic plate reader in 1536-well format. The maximums of kinetic fluorescence responses were converted into text files using the instrument's software data export utility. […] AC50 values were determined from concentration-response data modeled with the standard Hill equation. CHO-M1 1536-well FDSS assay protocol: (1) Frozen CHO-M1 cells were thaw, washed once with fresh media and resuspended in F-12 Kaighn's media supplemented with 10 % FBS, 100 units/ml penicillin and 100 ug/ml streptomycin. Cells were plated at 3 ul/well (1200 cells) to black, clear-bottom, tissue-culture treated 1536-well plates, and then cultured at 37C, 5 % CO2 for 16 to 30 hours. (2) Add 3 ul of calcium dye (from High Performance PBX Calcium Assay Kit, BD Biosciences). The calcium dye was prepared according to the manufactory's instruction. (3) Incubation at 37C, 5 % CO2 for 60 min. (4) Add 23 nl/well of compound in DMSO solution. The final titration for each compound was between 0.6 nM and 46 uM. (5) Load plates to FDSS-7000. The following steps were performed on FDSS-7000. (6) Record fluorescent background (Ex 480 nm, Em 520-560 nm) for 10 s. (7) Add 2 ul of stimulation reagent (1X HBSS buffer, 0.1% BSA, 60 nM carbachol). Record antagonist response (Ex 480 nm, Em 520-560 nm) for 180 s. Keywords: MLSMR, MLPCN, NIH Roadmap, qHTS, NCGC, NPS, Neuropeptide S Antagonists

| SMILES | Potency |
| --- | --- |
| CCC(C)n1c(=O)c(C(=O)Nc2ccccc2S(N)(=O)=O)c(O)c2ccccc21 (configuration not stated) | inactive |
| Nc1cc2nsnc2cc1Br | inconclusive: 11.2 µM [inhibitor, partial curve, poor fit] |
| CCOC(=O)c1c(NC(=O)CSc2nnc(-c3ccccc3)n2CC)sc(C(C)=O)c1C | inconclusive: 25.1 µM [inhibitor, single point] |
| Cc1ccc(C2CC(C(F)F)n3ncc(C(=O)Nc4c(C)nn(Cc5c(F)cccc5Cl)c4C)c3N2)cc1 (configuration not stated) | inconclusive: 12.6 µM [inhibitor, partial curve, poor fit] |
| c1cncc(-c2nc(-c3ccco3)cs2)c1 | inactive |
| COc1ccc(OC)c(C2C(C(=O)Nc3nc4ccccc4s3)=C(C)NC3=C2C(=O)CCC3)c1 (configuration not stated) | inconclusive: 7.08 µM [inhibitor, full curve, poor fit] |
| COc1ccc(-c2cc(N)n(S(=O)(=O)c3c(F)c(F)c(F)c(F)c3F)n2)cc1OC | active: 11.2 µM |
| COc1ccc(C2c3c(ncn(CCN4CCOCC4)c3=N)Oc3ccc4ccccc4c32)cc1OC (configuration not stated) | inactive |
| Cc1nn(-c2nc3ccccc3n2Cc2ccccc2)c2c1C(=O)CC(C)(C)C2 | inconclusive: 1.26 µM [activator, full curve, poor fit] |
| CCOC(=O)C1CCCN(c2ncnc3c2oc2ccccc23)C1 (configuration not stated) | inconclusive: 22.4 µM [inhibitor, partial curve, poor fit] |
| COc1ccc(NC(=O)/C(Cl)=C(/Cl)S(=O)Cc2ccc(C)cc2)cn1 (configuration not stated) | active: 10 µM |
| CCOC(=O)c1cnc2ccc(C)cc2c1Nc1ccc(N2CCOCC2)cc1 | inconclusive: 22.4 µM [inhibitor, single point] |
| O=S1(=O)Nc2c(ccc3cccnc23)-c2ccccc21 | inconclusive: 1 µM [inhibitor, full curve, poor fit] |
| COc1ccc(N(CC(=O)Nc2cccc(SC)c2)S(C)(=O)=O)cc1Cl | inactive |
| O=C(O)CCCCCNc1nc(=S)[nH]c2ccccc12 | inactive |
| CS(=O)(=O)c1nc(-c2ccccc2)cc(C(F)(F)F)n1 | inconclusive: 3.98 µM [inhibitor, partial curve] |
| COc1ccc(/C=C2\CCCC3C2=NN(C(=O)c2ccco2)C3c2ccc(OC)c(OC)c2)cc1OC (configuration not stated) | inactive |

Nothing new here: an excerpt of the list.

| SMILES | Potency |
| --- | --- |
| O=C(O)CCCCCNc1nc(=S)[nH]c2ccccc12 | inactive |
| CS(=O)(=O)c1nc(-c2ccccc2)cc(C(F)(F)F)n1 | inconclusive: 3.98 µM [inhibitor, partial curve] |
